These are yes or no findings as the source states them, for the method shown. Some entries that bind do so weakly or less than the wild type.
Tests used:
[1] = molecular target: human cyclin T1 1-264 (human) (UniProt O60563); experiment: crystal structure; Tat_(1-57):AFF4_(32-67):P-TEFb combined with TAR21 RNA (nucleotides 21-41) at 1:1.3; sitting drops at 18°C; 5.9 Å; molecular replacement with PDB 4OGR; both purified
HIV-1 Tat 1-57 (HIV-1) = HIV-1 Tat 1-57 (HIV-1) (UniProt P04608); experiment: as above
[2] = molecular target: Tat:P-TEFb complex (HIV-1 Tat 1-57, human CDK9 1-330, human cyclin T1 1-264) (HIV-1 | human) (UniProt P04608); experiment: as above
[3] = molecular target: Tat:P-TEFb complex (HIV-1 Tat 1-57, human CDK9 1-330, human cyclin T1 1-264) (HIV-1 | human) (UniProt P04608); experiment: SEC; Tat-P-TEFb and AFF4 combined at 1:1.4 (mol/mol), analytical Superdex S200, 25 mM Na-HEPES pH 7.4, 0.2 M NaCl, 1 mM DTT; both purified

Chains of the proteins cited; added tags and fusions are not shown. Residues count along the entry.
UniProt O60563, residues 1-264: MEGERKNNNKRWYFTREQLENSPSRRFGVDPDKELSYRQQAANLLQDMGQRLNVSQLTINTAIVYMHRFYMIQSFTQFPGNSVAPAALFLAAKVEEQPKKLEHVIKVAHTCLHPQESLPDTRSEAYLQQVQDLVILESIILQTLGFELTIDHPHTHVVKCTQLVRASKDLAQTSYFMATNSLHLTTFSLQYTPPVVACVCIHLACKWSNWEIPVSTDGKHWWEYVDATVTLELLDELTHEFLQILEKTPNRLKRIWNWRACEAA
UniProt P04608, residues 1-57: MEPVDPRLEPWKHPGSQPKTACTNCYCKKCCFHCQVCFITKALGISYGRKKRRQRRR

HIV-1 Tat 1-57 (from UniProt P04608 1-57) (domain or fragment)
binding [1]: binds

SPLFAEPYKVTSKEDKLSSRIQSMLGNYDEMKDFIG (peptide, UniProt Q9UHB7 32-67, acetylated and amidated termini) [AFF4 peptide 32-67]
binding (HIV-1 Tat 1-57 (HIV-1)): binds
binding [2]: binds

B1: AFF4 fragment 2-73 (domain or fragment, UniProt Q9UHB7 2-73)
chain: NREDRNVLRMKERERRNQEIQQGEDAFPPSSPLFAEPYKVTSKEDKLSSRIQSMLGNYDEMKDFIGDRSIPK
binding [3]: binds
